# Assay results from patent US20050272633A1.
# The chains behind the UniProt entries cited, without tags or fusion partners.
# UniProt Q99558: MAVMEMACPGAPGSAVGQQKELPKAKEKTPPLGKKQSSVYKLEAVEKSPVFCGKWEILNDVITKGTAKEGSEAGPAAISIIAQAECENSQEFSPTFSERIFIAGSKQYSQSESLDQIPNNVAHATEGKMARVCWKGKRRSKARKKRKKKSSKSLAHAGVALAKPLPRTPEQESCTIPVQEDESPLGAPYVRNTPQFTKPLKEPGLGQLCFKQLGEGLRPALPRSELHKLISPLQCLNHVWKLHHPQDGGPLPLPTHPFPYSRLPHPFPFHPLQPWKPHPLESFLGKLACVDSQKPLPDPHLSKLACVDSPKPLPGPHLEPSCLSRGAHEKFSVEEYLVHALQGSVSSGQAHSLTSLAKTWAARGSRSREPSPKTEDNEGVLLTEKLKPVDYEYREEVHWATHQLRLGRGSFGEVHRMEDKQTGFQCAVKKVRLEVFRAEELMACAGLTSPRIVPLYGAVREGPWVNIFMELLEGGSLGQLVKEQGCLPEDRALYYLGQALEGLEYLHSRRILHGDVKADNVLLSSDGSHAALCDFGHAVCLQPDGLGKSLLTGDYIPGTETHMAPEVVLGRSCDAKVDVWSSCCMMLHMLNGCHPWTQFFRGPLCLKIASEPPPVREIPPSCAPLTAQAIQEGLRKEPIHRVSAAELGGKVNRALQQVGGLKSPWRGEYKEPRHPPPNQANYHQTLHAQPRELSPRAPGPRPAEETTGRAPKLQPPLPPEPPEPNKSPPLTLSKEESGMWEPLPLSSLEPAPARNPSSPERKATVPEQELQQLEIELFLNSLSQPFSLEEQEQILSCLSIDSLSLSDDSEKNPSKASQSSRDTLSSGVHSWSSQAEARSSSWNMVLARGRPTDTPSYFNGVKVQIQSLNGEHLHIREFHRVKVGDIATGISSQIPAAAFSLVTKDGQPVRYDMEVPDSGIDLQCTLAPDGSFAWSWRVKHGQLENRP
# Results are given in words; binding and its absence hold for the method and conditions named. Binding seen in cells or lysates may run through a third protein. Some results given as binding are weak or reduced against the parent protein; the word gives no strength. Tags and fused reporters may be left off the sequences shown.
# Biological target: myc tagged NIK (pcS3MTNIK) (human) (UniProt Q99558)
# Assay: co-immunoprecipitation with anti GST, Western blot with anti myc
binder,measurement,value
"WLERTMPRIPTLKNLEDLVTEYHGNFSAWSGVSKGLAESLQPDY (peptide, not shown: a dimerising Fc or GST) [44 MPD fused to GST]",binding,binds
